Measured values published in patent US10435385B2, “Amide derivatives, process for preparation thereof and use thereof as insecticide” (MITSUI CHEMICALS, INC., priority 2004, dated 2019).
Some results were stated once for a whole list of compounds, not compound by compound.

Experiments:
[1] = system: common cutworm (Spodoptera litura); experiment: Insecticidal testing against common cutworm (cabbage leaf dip, second-stage larvae); assay type: in vivo; conditions: concentration of 100 ppm, survival rate investigated after 3 days, 25° C.
[2] = system: diamondback moth (Plutella xylostella); experiment: Insecticidal testing against diamondback moth (cabbage leaf dip, second-stage larvae); assay type: in vivo; conditions: concentration of 100 ppm, survival rate investigated after 3 days, 25° C.

With CCN(C(=O)c1ccccc1F)c1cccc(C(=O)Nc2c(C)cc(C(F)(C(F)(F)F)C(F)(F)F)cc2C)c1 [Compound No. 1206, N-(2,6-dimethyl-4-heptafluoroisopropyl)phenyl 3-[N-ethyl-N-(2-fluorobenzoyl)amino]benzamide] the pesticidal rate [1] was no less than 70% and the pesticidal rate [2] was no less than 70%.

Compound O=C(Nc1c(Br)cc(SC(F)(F)C(F)(F)C(F)(F)F)cc1Br)c1cccc(NC(=O)c2cccnc2Cl)c1 [Compound No. 309, N-(2,6-dibromo-4-heptafluoro-n-propylthio)phenyl 3-[(2-chloropyridin-3-yl)carbonylamino]benzamide] has a pesticidal rate [1] of no less than 70% and a pesticidal rate [2] of no less than 70%.

Cc1ccc(C(=O)N(C)c2cccc(C(=O)Nc3c(C)cc(C(F)(C(F)(F)F)C(F)(F)C(F)(F)F)cc3C)c2F)cc1 (centres unmarked) [compound 1258] was tested, and the pesticidal rate [1] was no less than 70% and the pesticidal rate [2] was no less than 70%.

For CN(C(=O)c1ccccc1)c1cccc(C(=O)Nc2c(Br)cc(SC(F)(F)C(F)(F)C(F)(F)F)cc2Br)c1 [compound 1126], the pesticidal rate [1] was no less than 70% and the pesticidal rate [2] was no less than 70%.

With O=C(Nc1cccc(C(=O)Nc2c(Br)cc(SC(F)(F)C(F)(F)C(F)(F)F)cc2Br)c1F)c1ccc([N+](=O)[O-])cc1 [compound 722] the pesticidal rate [1] was no less than 70% and the pesticidal rate [2] was no less than 70%.

In the case of Cc1ccccc1C(=O)N(C)c1cccc(C(=O)Nc2c(C)cc(C(F)(C(F)(F)F)C(F)(F)C(F)(F)F)cc2C)c1F (centres unmarked) [compound 1256], the pesticidal rate [1] is reported as no less than 70% and the pesticidal rate [2] is reported as no less than 70%.

Work on CCCc1cc(C(F)(C(F)(F)F)C(F)(F)F)cc(I)c1NC(=O)c1cccc(NC(=O)c2ccc(C(F)(F)F)cc2)c1 [compound 186] yielded a pesticidal rate [1] of no less than 70% and a pesticidal rate [2] of no less than 70%.

O=C(Nc1cccc(C(=O)Nc2c(Cl)cc(SC(F)(C(F)(F)F)C(F)(F)F)cc2Cl)c1)c1ccccc1 [compound 329] was tested, and the pesticidal rate [1] was no less than 70% and the pesticidal rate [2] was no less than 70%.

Cc1cc(C(F)(C(F)(F)F)C(F)(F)F)cc(C)c1NC(=O)c1cccc(NC(=O)c2ccccc2I)c1 [Compound No. 26] showed a pesticidal rate [1] of no less than 70% and a pesticidal rate [2] of no less than 70%.

For Cc1cc(C(F)(C(F)(F)F)C(F)(F)F)cc(C)c1NC(=O)c1cccc(NC(=O)c2cccc(I)c2)c1 [compound 27], the pesticidal rate [1] was no less than 70% and the pesticidal rate [2] was no less than 70%.

Cc1cc(C(F)(C(F)(F)F)C(F)(F)F)cc(C)c1NC(=O)c1cccc(NC(=O)c2ccc(F)cc2F)c1 [Compound No. 60] was tested, and the pesticidal rate [1] was no less than 70% and the pesticidal rate [2] was no less than 70%.

O=C(Nc1cccc(C(=O)Nc2c(Br)cc(SC(F)(F)C(F)(F)C(F)(F)F)cc2Br)c1)c1ccccc1 [Compound No. 263, N-(2,6-dibromo-4-heptafluoro-n-propylthio)phenyl 3-(benzoylamino)benzamide] gave a pesticidal rate [1] of no less than 70% and a pesticidal rate [2] of no less than 70%.

Compound Cc1cc(C(F)(C(F)(F)F)C(F)(F)F)cc(C)c1NC(=O)c1ccc(F)c(NC(=O)c2ccccc2F)c1 [compound 653] has a pesticidal rate [1] of no less than 70% and a pesticidal rate [2] of no less than 70%.

With Cc1cc(C(F)(C(F)(F)F)C(F)(F)C(F)(F)F)cc(C)c1NC(=O)c1cccc(NC(=O)c2ccc([N+](=O)[O-])cc2)c1F (centres unmarked) [compound 679] the pesticidal rate [1] was no less than 70% and the pesticidal rate [2] was no less than 70%.

Compound Cc1cc(C(F)(C(F)(F)F)C(F)(F)C(F)(F)F)cc(C)c1NC(=O)c1cccc(NC(=O)c2ccccc2)c1 (centres unmarked) [compound 212] has a pesticidal rate [1] of no less than 70% and a pesticidal rate [2] of no less than 70%.

Compound Cc1cc(C(F)(C(F)(F)F)C(F)(F)F)cc(C)c1NC(=O)c1cccc(NC(=O)c2ccc(F)cc2Cl)c1 [compound 83] has a pesticidal rate [1] of no less than 70% and a pesticidal rate [2] of no less than 70%.

Compound Cc1cc(C(F)(C(F)(F)F)C(F)(F)F)cc(C)c1NC(=O)c1cccc(NC(=O)c2ccccc2Br)c1 [compound 23] has a pesticidal rate [1] of no less than 70% and a pesticidal rate [2] of no less than 70%.

Cc1cc(C(F)(C(F)(F)F)C(F)(F)F)cc(C)c1NC(=O)c1cccc(NC(=O)c2ccccc2C(F)(F)F)c1 [compound 37] gave a pesticidal rate [1] of no less than 70% and a pesticidal rate [2] of no less than 70%.

Work on O=C(Nc1c(Br)cc(SC(F)(F)C(F)(F)F)cc1Br)c1cccc(NC(=O)c2ccccc2F)c1 [compound 259] yielded a pesticidal rate [1] of no less than 70% and a pesticidal rate [2] of no less than 70%.

In the case of Cc1cc(C(F)(C(F)(F)F)C(F)(F)F)cc(C)c1NC(=O)c1cccc(NC(=O)c2ccc(Cl)cc2)c1 [Compound No. 22], the pesticidal rate [1] is reported as no less than 70% and the pesticidal rate [2] is reported as no less than 70%.

With Cc1cc(C(F)(C(F)(F)F)C(F)(F)F)cc(C)c1NC(=O)c1cccc(NC(=O)c2ccccc2Cl)c1 [Compound No. 20] the pesticidal rate [1] was no less than 70% and the pesticidal rate [2] was no less than 70%.

Cc1cc(C(F)(C(F)(F)F)C(F)(F)F)cc(C)c1NC(=O)c1cccc(NC(=O)c2c(Cl)cccc2Cl)c1 [compound 68] was tested, and the pesticidal rate [1] was no less than 70% and the pesticidal rate [2] was no less than 70%.

In the case of Cc1cc(C(F)(C(F)(F)F)C(F)(F)C(F)(F)F)cc(C)c1NC(=O)c1cccc(N(C)C(=O)c2ccc(Cl)nc2)c1F (centres unmarked) [compound 1294], the pesticidal rate [1] is reported as no less than 70% and the pesticidal rate [2] is reported as no less than 70%.

CS(=O)(=O)c1cc(C(F)(C(F)(F)F)C(F)(F)F)cc(Br)c1NC(=O)c1cccc(NC(=O)c2ccccc2F)c1 [compound 204] gave a pesticidal rate [1] of no less than 70% and a pesticidal rate [2] of no less than 70%.

In the case of Cc1cccc(C(=O)N(C)c2cccc(C(=O)Nc3c(C)cc(C(F)(C(F)(F)F)C(F)(F)C(F)(F)F)cc3C)c2F)c1 (centres unmarked) [compound 1257], the pesticidal rate [1] is reported as no less than 70% and the pesticidal rate [2] is reported as no less than 70%.

With Cc1cc(C(F)(C(F)(F)F)C(F)(F)F)cc(C)c1NC(=O)c1cccc(NC(=O)c2ccc(F)cc2)c1 [compound 19] the pesticidal rate [1] was no less than 70% and the pesticidal rate [2] was no less than 70%.

O=C(Nc1cccc(C(=O)Nc2c(Br)cc([S+]([O-])C(F)(F)C(F)(F)C(F)(F)F)cc2Br)c1)c1ccccc1 (centres unmarked) [Compound No. 335, N-(2,6-dibromo-4-heptafluoro-n-propylsulfinyl)phenyl 3-(benzoylamino)benzamide] showed a pesticidal rate [1] of no less than 70% and a pesticidal rate [2] of no less than 70%.

Compound Cc1cc(C(F)(C(F)(F)F)C(F)(F)F)cc(C)c1NC(=O)c1cccc(NC(=O)c2cccc(Cl)c2)c1 [Compound No. 21] has a pesticidal rate [1] of no less than 70% and a pesticidal rate [2] of no less than 70%.

With Cc1cc(C(F)(C(F)(F)F)C(F)(F)F)cc(C)c1NC(=O)c1cccc(NC(=O)c2cncnc2C(F)(F)F)c1 [compound 124] the pesticidal rate [1] was no less than 70% and the pesticidal rate [2] was no less than 70%.

Work on Cc1cc(C(F)(C(F)(F)F)C(F)(F)C(F)(F)F)cc(C)c1NC(=O)c1cccc(NC(=O)c2ccc(OC(F)(F)F)cc2)c1F (centres unmarked) [compound 682] yielded a pesticidal rate [1] of no less than 70% and a pesticidal rate [2] of no less than 70%.

For Cc1cc(C(F)(C(F)(F)F)C(F)(F)F)cc(C(C)C)c1NC(=O)c1cccc(NC(=O)c2ccccc2)c1 [compound 176], the pesticidal rate [1] was no less than 70% and the pesticidal rate [2] was no less than 70%.

O=C(Nc1c(I)cc(SC(F)(F)C(F)(F)C(F)(F)F)cc1I)c1cccc(NC(=O)c2ccccc2F)c1 [compound 328] gave a pesticidal rate [1] of no less than 70% and a pesticidal rate [2] of no less than 70%.

Work on Cc1cc(SC(F)(F)C(F)(F)C(F)(F)F)cc(C)c1NC(=O)c1cccc(N(C)C(=O)c2ccccc2F)c1 [compound 1125] yielded a pesticidal rate [1] of no less than 70% and a pesticidal rate [2] of no less than 70%.

Cc1cc(C(F)(C(F)(F)F)C(F)(F)F)cc(C)c1NC(=O)c1cccc(NC(=O)c2c(F)ccc(F)c2F)c1 [compound 92] was tested, and the pesticidal rate [1] was no less than 70% and the pesticidal rate [2] was no less than 70%.
